Earlier results, collected in patent US9487492B2, “Dibenzothiazepine derivatives and their use in the treatment of CNS disorders” (NUMEDICUS LIMITED, priority 2011, dated 2016).

Conditions: in humans; cited from earlier work

SMILES: CN1c2ccccc2C(NCCCCCCC(=O)O)c2ccc(Cl)cc2S1(=O)=O (stereo not shown) [Tianeptine]
- terminal half life: approximately 2.5 hours
